In publication doi:10.64898/2025.12.17.694969:
Changes are numbered by the printed parent chain. These are yes or no findings as the source states them, for the method shown. Some results given as binding are weak or reduced against the parent protein; the word gives no strength. For some of these results: Where a sequence is shown, tags or fusion partners need not be part of it.

Legend:
[1] = target: T1, SymplekinNTD (Symplekin residues 1–307) (S. pombe) (UniProt Q10222); experiment: SEC
T1 sequence: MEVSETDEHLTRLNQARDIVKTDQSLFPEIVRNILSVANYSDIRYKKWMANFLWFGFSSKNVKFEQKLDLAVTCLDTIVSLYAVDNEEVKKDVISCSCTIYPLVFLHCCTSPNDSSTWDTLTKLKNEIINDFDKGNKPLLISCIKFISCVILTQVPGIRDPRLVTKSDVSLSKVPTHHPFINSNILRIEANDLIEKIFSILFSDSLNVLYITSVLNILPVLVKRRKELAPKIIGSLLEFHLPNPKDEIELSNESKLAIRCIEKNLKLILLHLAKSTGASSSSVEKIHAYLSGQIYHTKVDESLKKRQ

[2] = target: T2, SymplekinNTD^DPR-AAA (S. pombe) (UniProt Q10222); experiment: SEC
T2 sequence: T1 sequence with D160A, P161A, R162A

[3] = target: T3, Symplekin with twin-StrepII tag (S. pombe Symplekin/Pta1) (S. pombe) (UniProt Q10222); experiment: cross-linking
T3 sequence: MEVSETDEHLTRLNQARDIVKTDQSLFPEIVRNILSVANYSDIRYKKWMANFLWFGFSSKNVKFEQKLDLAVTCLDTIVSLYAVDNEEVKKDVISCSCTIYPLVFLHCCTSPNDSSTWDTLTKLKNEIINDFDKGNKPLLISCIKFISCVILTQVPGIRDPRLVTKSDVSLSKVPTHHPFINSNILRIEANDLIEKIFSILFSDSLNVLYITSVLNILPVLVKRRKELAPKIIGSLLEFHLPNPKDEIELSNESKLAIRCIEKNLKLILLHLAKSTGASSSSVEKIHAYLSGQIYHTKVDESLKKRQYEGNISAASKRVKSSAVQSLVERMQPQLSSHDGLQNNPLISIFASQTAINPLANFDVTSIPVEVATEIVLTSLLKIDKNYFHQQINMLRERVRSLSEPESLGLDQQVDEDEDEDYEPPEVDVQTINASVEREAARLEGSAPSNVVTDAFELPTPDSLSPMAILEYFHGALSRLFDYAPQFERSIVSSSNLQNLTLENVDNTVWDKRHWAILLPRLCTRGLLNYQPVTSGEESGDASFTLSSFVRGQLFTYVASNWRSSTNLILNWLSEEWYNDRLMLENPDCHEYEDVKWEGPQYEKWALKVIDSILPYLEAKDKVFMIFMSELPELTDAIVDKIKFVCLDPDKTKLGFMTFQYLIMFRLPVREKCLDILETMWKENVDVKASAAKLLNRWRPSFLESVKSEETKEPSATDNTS

[4] = target: T1, SymplekinNTD (Symplekin residues 1–307) (S. pombe); experiment: crystal structure

Measured: binding

B1: Ssu72 (S. pombe) (enzyme, UniProt O42868 1-197)
chain: MAPKTNLQISVICASNQNRSMEAHNVLKNAGYQVDSFGTGSAVRLPGPSIDKPNIYQFGYPYDEIYKELEAQDSRLYTANGLLKMLDRNRRIKRAPCRWQDQDSIYNIVITCEERCYDAICEDLYRRGETLNRPVYLINVDIKDNHEEASVGGKAILDLVNKLTEAQDKLEELFPSIMADFQSNHPKLPVLYTIHFF
binds: all assays above
